Laboratory results: the supplement of paper PMC7858590
± gives the standard deviation of the averaged measurements. Over roughly 3,800 compounds, “cell shape (eccentricity) Z-score vs DMSO control” has its median near 1.1; the lowest 2% begin near -4.7. The list shows a part of the results.

system: human monocyte-derived macrophages (M0); test: cell shape (eccentricity) Z-score vs DMSO control; higher = more elongated, M2-like morphology; details: 20 µM; 24 h; macrophage state: M0 (M-CSF)

| SMILES | cell shape (Z-score) |
| --- | --- |
| CC(C)=CCOc1cc2oc(=O)ccc2cc1O | 3.69 |
| C[C@]12CC[C@@H]3c4ccc(O)cc4C[C@@H](CCCCCCCCCS(=O)CCCC(F)(F)C(F)(F)F)[C@H]3[C@@H]1CC[C@@H]2O (stereo not given in full) | 1.44 |
| Cc1cccc(C(=O)NCN2CCN(c3ccccc3C#N)CC2)c1 | -1.37 |
| O=C(O)c1ccc2c(c1)OCO2 | 3.18 |
| CC12CCC3C(CCC4CC(O)CCC43C)C1CC=C2c1ccccc1 (stereo not given) | 2.22 |
| COc1cc(O)c2c(=O)c(OC3OC(CO[C@@H]4O[C@@H](C)[C@H](O)[C@@H](O[C@@H]5O[C@@H](C)[C@H](O)[C@@H](O)[C@H]5O)[C@H]4O)C(O)C(O)C3O)c(-c3ccc(O)cc3)oc2c1 (stereo not given in full) | 1.66 |
| COc1cc2c(NC3CCN(C)CC3)nc(N3CCCN(C)CC3)nc2cc1OCCOCCN(C)C | 2.13 |
| CCCN(CC=CI)C1CCc2cccc(O)c2C1 (stereo not given) | 1.69 |
| C[C@H](CO)N1C[C@H](C)[C@H](CN(C)C(=O)Nc2cc(F)ccc2F)Oc2cc(C#CC3CCCC3)ccc2S1(=O)=O | 5.14 |
| CCOc1cc2ncc(C#N)c(Nc3ccc(OCc4ccccn4)c(Cl)c3)c2cc1NC(=O)/C=C/CN(C)C | 13.9 |
| NCCCCCCCCCCNS(=O)(=O)c1cccc2c(Cl)cccc12 | -0.874 |
| COc1cc(C(=O)OC[C@@]2(O)CO[C@H](OC3C(CO)OC(OC(C)/C=C/C4(O)C(C)CC(O)CC4(C)C)C(O)C3O)[C@@H]2O)cc(OC)c1O (stereo not given in full) | -1.76 |
| CC(=O)C1(O)Cc2c(O)c3c(c(O)c2C(OC2CC(N)C(O)C(C)O2)C1)C(=O)c1c(O)cccc1C3=O (stereo not given) | 2.12 |
| C[C@H](/N=C(/NC#N)Nc1cccc2ncccc12)c1ccccc1 | 2.21 |
| CC1CC(=O)[C@]2(O)C(C(=O)OCCc3ccc(O)c(O)c3)=CO[C@@H](O[C@@H]3O[C@H](CO)[C@@H](O)[C@H](O)[C@H]3O)[C@H]12 (stereo not given in full) | 3.81 |
| CCOC(=O)c1ncn2c1CN(C)C(=O)c1cc(F)ccc1-2 | 2.93 |
| COc1cc(OC2CCN(C)CC2)ccc1Nc1ncc2c(n1)n(C1CCCC1)c(=O)n2C | 3.21 |
| CCC(=O)NC1CCc2cccc(OC)c2C1 (stereo not given) | 2.05 |
| OCCN1C[C@H](O)[C@@H](O)[C@H](O)[C@H]1CO | -0.354 |
| CC1OC(OCC2(C)C=C3C4CCC5C6(C)CCC(O)C(C)(COC7OC(CO)C(O)C(O)C7O)C6CCC5(C)C4(C)CCC3(C(=O)O)CC2)C(O)C(O)C1O (stereo not given) | -0.575 |
| COc1cc2[nH]c3ccccc3c2cc1C | 1.1 ± 0.9 |
| COc1ccc([C@@H](C)C(=O)c2ccc(O)cc2O)cc1 | 2.46 |
| COC(=O)/C=C/c1ccc(OC)c(/C=C/C(C)(C)O)c1 | -0.516 |
| COc1ccc(-c2cc(=O)c3c(O)c(OC)c(O[C@@H]4O[C@H](CO)[C@@H](O)[C@H](O)[C@H]4O[C@@H]4O[C@@H](C)[C@H](O)[C@@H](O)[C@H]4O)cc3o2)cc1 | 2.34 |
| CCCCCCCCCCCC[C@H](C(=O)O)[C@@H](C)C(=O)O | 1.94 |
| O=S(=O)(NCCNC/C=C/c1ccc(Br)cc1)c1cccc2cnccc12 | 7.14 |
| CN(CCOP(=O)(O)O)C(=N)N | -0.65 |

| SMILES | cell shape (Z-score) |
| --- | --- |
| COc1cc(O[C@@H]2O[C@H](CO[C@H]3OC[C@](O)(CO)[C@H]3O)[C@@H](O)[C@H](O)[C@H]2O)cc(OC)c1OC | 1.07 |
| C[C@H]1O[C@@H](O[C@H]2C[C@H]3C(=O)C[C@]4(C)C(=CCC5[C@@]6(C)CC[C@H](O[C@@H]7OC[C@@H](O)[C@H](O)[C@H]7O)[C@@](C)(C=O)C6CC[C@]54C)[C@@H]3CC2(C)C)[C@H](O)[C@@H](O)[C@@H]1O[C@@H]1O[C@H](C(=O)O)[C@@H](O)[C@H](O)[C@H]1O (stereo not given in full) | -1.43 |
| COc1cc(CC(C)C(C)Cc2ccc(O)c(OC)c2)ccc1O (stereo not given) | 3.2 |
| Cc1cccc(N(C)C(=S)Oc2ccc3ccccc3c2)c1 | 0.156 |
| N=C1SC(=Cc2c[nH]nc2-c2ccc(F)cc2)C(=O)N1c1nccs1 | 0.227 |
| O=C(O[C@@H]1Cc2c(O)cc(O)cc2O[C@@H]1c1ccc(O)c(O)c1)c1cc(O)c(O)c(O)c1 | 1.98 |
| CNc1cc(OC)c(C(=O)N[C@@H]2CCN(Cc3ccccc3)[C@H]2C)cc1Cl | -0.0116 |
| CN(C)CCOc1ccc(/C(=C(/CCCl)c2ccccc2)c2ccccc2)cc1 | 2.07 |
| CC1=C(CC(=O)O)c2cc(F)ccc2/C1=C\c1ccc(S(C)=O)cc1 (stereo not given) | 1.92 |
| Cc1cc(Nc2ncc3c(n2)N(C)C(=O)N(c2cc(NC(=O)c4cccc(C(F)(F)F)c4)ccc2C)C3)n(C)n1 | 29.7 |
| CC(=O)NC1CCN(C(=O)Nc2cc(-c3cccs3)ccc2N)CC1 | 8.82 |
| CCC[C@@H]1C[C@@H](C(=O)N[C@H]([C@H]2O[C@H](SC)[C@H](O)[C@@H](O)[C@H]2O)[C@H](C)O)N(C)C1 | 1.87 |
| Cc1cc(-c2ccccc2)nnc1NCCN1CCOCC1 | -0.38 |
| COc1cc(O)c2c(c1)O[C@H](c1ccc(O)cc1)[C@@H](O)C2=O | 0.849 |
| CC1CC(=O)C2C(O)(C1)CC(O)C13OC21C(=O)c1cccc(O)c1C3O (stereo not given) | 3.39 ± 2.6 |
| CC(=O)NCCCN(CCCCN(CCCNC(=O)/C=C/c1ccc(O)cc1)C(C)=O)C(=O)/C=C/c1ccc(O)cc1 | 1.03 |
| Cc1cccc(-c2[nH]c(C(C)(C)C)nc2-c2ccc3nccnc3c2)n1 | 4.84 |
| CCN(CC)CCCCN1c2ccccc2Oc2ccc(Cl)cc21 | 1.58 |
| CCc1cc(O)c(C)c(O)c1C=O | 0.702 ± 3.1 |
| CC(C)NCC(O)c1cc(O)cc(O)c1 (stereo not given) | -0.105 |
| O=C1CC(c2ccc(O)cc2)Oc2c1c(O)cc(O)c2C1C(=O)c2c(O)cc(O)cc2OC1c1ccc(O)c(O)c1 (stereo not given) | 2.16 ± 0.28 |
| COCC(=O)O[C@]1(CCN(C)CCCc2nc3ccccc3[nH]2)CCc2cc(F)ccc2[C@@H]1C(C)C | 3.53 |
| c1ccc(-c2n[nH]c3c2oc2ccccc23)cc1 | 0.646 |
| O=C(O)C1CCCN(CCC=C(c2ccccc2)c2ccccc2)C1 (stereo not given) | 0.298 |
| CN(C)c1ccccc1CN1CCCN(Cc2ccccc2N(C)C)C1c1ccncc1 | 0.046 |
| Nc1nc2ccc(Cl)cc2c2nc(-c3ccco3)nn12 | -0.49 |
| COc1ccc([C@H]2Oc3cc(OC)cc(OC)c3C[C@H]2O)cc1 | 3.66 |

| SMILES | cell shape (Z-score) |
| --- | --- |
| COc1cc2c(cc1OC)[C@@H]1C(=O)c3ccc4c(c3O[C@@H]1CO2)C=CC(C)(C)O4 | 3.13 |
| O=C(Oc1cccc2ccccc12)c1ccccc1 | 2.78 |
| C=C[C@H]1[C@H](O[C@@H]2O[C@H](CO)[C@@H](O)[C@H](O)[C@H]2O)OC=C(C(=O)OC)[C@H]1C[C@@H]1N[C@H](C(=O)O)Cc2c1[nH]c1ccccc21 | -0.0299 ± 0.99 |
| C[C@]12CCC(=O)C=C1CC[C@@H]1C2CC[C@@]2(C)C1CC[C@@H]2C(=O)CO (stereo not given in full) | 2.88 |
| CC(=O)OCC(=O)[C@@]1(O)[C@H](C)CC2C3CCC4=CC(=O)C=C[C@]4(C)[C@@]3(F)[C@@H](O)C[C@@]21C (stereo not given in full) | -0.917 |
| O=C(O)Cc1ccc(OCCNC[C@H](O)c2ccccc2)cc1 | -2.47 |
| COc1ccccc1N1CCN(CCCNc2cc(=O)n(C)c(=O)n2C)CC1 | 1.39 |
| C[C@@H]1CC[C@]2(C)[C@H](CC[C@@H](O)[C@]2(C)O)[C@@]1(C)CC/C(=C/CO)CO | 0.548 |
| C/C(=C\C=C\[C@@H](C)[C@H]1CC[C@@]2(C)[C@@H]3CCC4C(C)(C)[C@@H](O[C@@H]5O[C@H](CO)[C@@H](O[C@@H]6O[C@@H](C)[C@H](O)[C@@H](O)[C@H]6O)[C@H](O)[C@H]5O[C@@H]5O[C@H](CO[C@@H]6O[C@H](CO)[C@@H](O)[C@H](O)[C@H]6O)[C@@H](O)[C@H](O)[C@H]5O[C@@H]5O[C@@H](C)[C@H](O)[C@@H](O)[C@H]5O)CC[C@@]45C[C@@]35CC[C@]12C)C(=O)N[C@@H]1C(=O)O[C@H](C)[C@@H]1C (stereo not given in full) | 0.54 |
| CC(=O)O[C@@H]1CC[C@@]2(C)C(C[C@@H](OC(C)=O)[C@@]3(C)C4=CC(=O)O[C@@H](c5ccoc5)[C@]4(C)CCC23)C1(C)C (stereo not given in full) | -1.25 |
| CN1CCN(C(=O)c2nc3ccc(Cl)cc3[nH]2)CC1 | 1.38 |
| CCCC(=O)O | -0.115 |
| COC(=O)C1=CO[C@@H](O[C@@H]2O[C@H](CO)[C@@H](O)[C@H](O)[C@H]2O)[C@@H]2[C@@](C)(O)[C@@H](OC(=O)/C=C/c3ccc(OC)c(O)c3)C[C@]12O | 2.65 |
| CC(C)=CCc1cc(O[C@@H]2O[C@H](CO)[C@@H](O)[C@H](O)[C@H]2O)cc(CC=C(C)C)c1C(O)C(=O)O (stereo not given in full) | 1.87 |
| CC(=O)O[C@@H]1CC2C(C)(C)C(=O)C3OC3[C@]2(C)C2CC[C@@]3(C)[C@H](c4ccoc4)OC(=O)C4OC43[C@@]21C (stereo not given in full) | -1.17 |
| COc1c(O)cc2oc3cc(O)c(CC=C(C)C)c(O)c3c(=O)c2c1CC=C(C)C | 0.968 |
| CCOc1ccc(NC(=O)CC(C)O)cc1 (stereo not given) | -1.17 |
| CNCCCN1c2ccccc2CCc2ccccc21 | 2.19 |
| c1ccc(C(O[C@@H]2CCCN(CCc3ccc4c(c3)OCO4)C2)c2ccccc2)cc1 | 2.82 |
| CCN(CC)CCNC(=O)COc1ccc(OC)cc1 | -0.914 |
| CO[C@@]12[C@H](COC(N)=O)C3=C(C(=O)C(C)=C(N)C3=O)N1C[C@@H]1N[C@@H]12 | -1.43 ± 4 |
| CC(N)C(=O)OC(C)(C)Cc1ccc(Cl)cc1 (stereo not given) | 5.33 |
| O=C(OCc1cccc(O)c1O[C@@H]1O[C@H](CO)[C@@H](O)[C@H](O)[C@H]1O)C1(O)C(=O)C2C=CC1C1C=CC(=O)C(O)(C(=O)OCc3cccc(O)c3O[C@@H]3O[C@H](CO)[C@@H](O)[C@H](O)[C@H]3O)C21 (stereo not given in full) | -0.246 |
| COc1ccc(-c2coc3cc(O[C@@H]4O[C@H](CO)[C@@H](O)[C@H](O)[C@H]4O)cc(O)c3c2=O)cc1 | 0.123 |
| N[C@](CC1c2ccccc2Oc2ccccc21)(C(=O)O)[C@H]1C[C@@H]1C(=O)O | 2.77 |
| CC12CCC3c4ccc(OC(=O)c5ccccc5)cc4CCC3C1CCC2O (stereo not given) | 2.05 |

Rewritten comma-delimited: part of the list above.
SMILES,cell shape (Z-score)
O=C(O)c1ccc2c(c1)OCO2,3.18
CC12CCC3C(CCC4CC(O)CCC43C)C1CC=C2c1ccccc1 (stereo not given),2.22
COc1cc(O)c2c(=O)c(OC3OC(CO[C@@H]4O[C@@H](C)[C@H](O)[C@@H](O[C@@H]5O[C@@H](C)[C@H](O)[C@@H](O)[C@H]5O)[C@H]4O)C(O)C(O)C3O)c(-c3ccc(O)cc3)oc2c1 (stereo not given in full),1.66
COc1cc2c(NC3CCN(C)CC3)nc(N3CCCN(C)CC3)nc2cc1OCCOCCN(C)C,2.13
CCCN(CC=CI)C1CCc2cccc(O)c2C1 (stereo not given),1.69
C[C@H](CO)N1C[C@H](C)[C@H](CN(C)C(=O)Nc2cc(F)ccc2F)Oc2cc(C#CC3CCCC3)ccc2S1(=O)=O,5.14
CCOc1cc2ncc(C#N)c(Nc3ccc(OCc4ccccn4)c(Cl)c3)c2cc1NC(=O)/C=C/CN(C)C,13.9
